Source: PubChem BioAssay AID2060323 (National Center for Advancing Translational Sciences (NCATS), 2025)
The inconclusive results got no clear call from the source; some entries with a clear call stand among them for comparison. Where the call is inconclusive, the potency comes from a doubtful curve fit. Calls of active or inactive are those of the source. Calls come from the whole dose curve; as a rule, active = well fitted activation curve with a large enough effect; inconclusive = small, poorly fitted or top-dose-only effect; inactive = no such curve, though single readings can be large or run the other way.

Amino acid sequences for entries named in this document (tags omitted).
UniProt P04637, whole entry, looked up: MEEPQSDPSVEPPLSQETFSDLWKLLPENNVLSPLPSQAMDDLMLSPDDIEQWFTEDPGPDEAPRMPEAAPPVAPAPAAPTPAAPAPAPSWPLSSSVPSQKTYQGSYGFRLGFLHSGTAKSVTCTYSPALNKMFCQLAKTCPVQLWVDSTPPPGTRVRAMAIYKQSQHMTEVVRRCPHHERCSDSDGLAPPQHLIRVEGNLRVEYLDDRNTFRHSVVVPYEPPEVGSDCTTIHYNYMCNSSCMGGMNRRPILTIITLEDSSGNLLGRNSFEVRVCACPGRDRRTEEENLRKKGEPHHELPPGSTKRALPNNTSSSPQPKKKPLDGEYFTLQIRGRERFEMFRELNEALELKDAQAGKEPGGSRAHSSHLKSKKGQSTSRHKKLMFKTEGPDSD

Each compound was assayed against Cellular tumor antigen p53 (Homo sapiens) (UniProt P04637) (assay: Confirmatory qHTS for small molecule compounds that upregulate eGFP-tagged delta133p53alpha (in C-terminal) cells.). Conditions: delta133p53alpha-eGFP (C-terminal) reporter cells, GFP fluorescence upregulation; series mostly up to 57.5 µM.
Text: Assay Development and Screening Technology
National Center for Advancing Translational Sciences (NCATS),
National Institute of Health (NIH), Rockville, Maryland
Cellular senescence (CS) is one of the hallmarks of aging and age-related diseases. Senescent cells are characterized by an irreversible growth arrest, an increase in senescence-associated beta-galactosidase (SA-beta-gal) activity and p16INK4a expression, an activation of the DNA damage response pathways, and the emergence of a senescence-associated secretory phenotype (SASP).
Delta133p53alpha, a human/primate-specific p53 protein isoform, delays or inhibits the induction of CS and SASP in various types of human cells, including progeria-derived fibroblasts, primary normal astrocytes, and CD8+ T lymphocytes. Induction of delta133p53alpha with small molecule compounds may provide therapeutic opportunities for inhibition of senescence/SASP-associated pathologies in progeria syndromes, astrocyte-mediated neuroprotection in neurodegenerative diseases, and possibly prevention and treatment of a wider range of senescence- and aging-associated diseases.
Here we report the development and validation of a cell-based quantitative high throughput screening (qHTS) assay in 1,536-well format. This qHTS assay uses the NCI-H358 cell line with doxycycline-inducible expression of enhanced green fluorescent protein (eGFP)-tagged delta133p53alpha, which allows efficient and highly quantitative measurement of the protein levels.
PROTOCOL TABLE (as described by Inglese J, Shamu CE and Guy RK. 2007)
SEQUENCE No. (e.g., 1, 2, 3, etc.); […] (e.g., Cells, Incubation, Reagent, etc.); VALUE; DESCRIPTION.
1; Cells; 4uL; 800 doxycycline treated cells / well in doxycycline-free media, 1536-well black, clear-bottom low base Aurora microplates.
2; Compounds; 23 nL; Kalypsis pin tool (Wako) equipped with 1536-well pin heads, 5-azacytidine positive control.
3; Incubation; 24 hr; 37C, 5% CO2; 95% relative humidity.
4; Aspiration; 1x; BioTek EL406 washer dispenser (Agilent).
5; Fixing; 3.5% paraformaldehyde, BioTek EL406 washer dispenser (Agilent).
6; Washing; 1x PBS; BioTek EL406 washer dispenser (Agilent).
7; Nuclei staining; 1:1000 dilution of Hoechst 33342 (Thermofisher), BioTek EL406 washer dispenser (Agilent).
8; Incubation; 20 min; in the dark at room temperature.
9; Washing; 2x, 1x PBS (ThermoFisher), BioTek EL406 washer dispenser (Agilent).
10; Reagent; 10 uL; 1x PBS per well, sealed with clear adhesive tape.
11; Detection; Fluorescence, Acumen eX3 laser scanning cytometer (STP Labtech), GFP filters […].
NOTES (numbers refer to sequence numbers above).
1. NCI-H358 cells expressing eGFP-tagged delta133p53alpha were grown in T75 culture flasks and treated with doxycycline for 24h, at 10 ng/ml for eGFP-D133p53a cells (N-terminal cell) and 100 ng/ml for D133p53a-eGFP cells (C-terminal cells). Cells were trypsinized, counted using a Counted 3 Automated Cell Counter (Thermo Fisher), and diluted to a concentration of 200,000 cells/ml. A Multidrop Combi Reagent Dispenser (ThermoFisher) was used to dispense 800 cells/well in […] of doxycycline-free media, into 1536-well black/clear bottom low base plates (AuroraMicroplates).
2. After plating cells, 23 nl of compound library, DMSO vehicle control or positive control (5-azacytidine) were transferred by Pin Tool (Wako). The plate map layout was the same for each plate: (column 1) non-doxycycline treated cells + DMSO vehicle control; (column 2) doxycycline treated cells + DMSO vehicle control baseline; (column 3) doxycycline treated cells + positive control 57.5 uM final concentration 5-azacytidine; (column 4) doxycycline treated cells + serial dilution of 5-azacytidine, 16-point 1:2 titration spanning 1.8 nM to […] final concentration; (columns 5-48) doxycycline treated cells + titration of library compounds.
3. Cells were incubated at 37 °C, 5 % CO2, 95% RH with breathable metal lid for 24h.
4-10. […]

Row | Structure (SMILES) | Potency
1 | O=C1C(SCCO)=C(SCCO)C(=O)c2ccccc21 | active: 9.68 µM
2 | CCOC(=O)Nc1ccc(NCc2ccc(F)cc2)nc1N | inactive
3 | S=C(S)N1CCCC1 | inconclusive: 3.06 µM [activator, single point]
4 | CC(C)(C)c1ccc(C(=O)CCCN2CCC(OC(c3ccccc3)c3ccccc3)CC2)cc1 | inconclusive: 30.6 µM [activator, single point]
5 | NS(=O)(=O)C#Cc1ccccc1 | inconclusive: 43.2 µM [activator, single point]
6 | S=C(Nc1ccccc1)Nc1nccs1 | inconclusive: 43.2 µM [activator, single point]
7 | CNCCC(Oc1ccc(C(F)(F)F)cc1)c1ccccc1 (stereo not drawn) | inconclusive: 15.3 µM [activator, full curve, poor fit]
8 | CC1CN(S(=O)(=O)c2cccc3cnccc23)CCN1 (stereo not drawn) | inactive
9 | CNCCNS(=O)(=O)c1cccc2cnccc12 | inconclusive: 0.109 µM [activator, single point]
10 | COc1cc2c(cc1O)CC[C@@H]1[C@@H]2CC[C@]2(C)[C@@H](O)CC[C@@H]12 | inconclusive: 8.63 µM [activator, full curve, poor fit]
11 | O=c1cc(-c2ccccc2)[nH]c2nc(Cl)ccc12 | inconclusive: 0.0485 µM [activator, full curve, poor fit]
12 | CN1Cc2sccc2C(c2ccc(O)c(O)c2)C1 (stereo not drawn) | inconclusive: 43.2 µM [activator, single point]
13 | O=c1c(O)c(-c2ccc(O)c(O)c2)oc2cc(O)cc(O)c12 | inconclusive: 21.7 µM [activator, partial curve]
14 | CC[C@@H]1Cc2cc(O)ccc2C2=C1c1ccc(O)cc1C[C@H]2CC | inconclusive: 30.6 µM [activator, single point]
15 | O=C1NCN(c2ccccc2)C12CCN(CCCC(c1ccc(F)cc1)c1ccc(F)cc1)CC2 | inconclusive: 27.3 µM [activator, single point]
16 | O=c1cc(-c2ccccc2F)[nH]c2cc3c(cc12)OCO3 | inconclusive: 0.0432 µM [activator, full curve, poor fit]
17 | CN1CCc2ccccc2Cc2[nH]c3ccccc3c2CC1 | inconclusive: 19.3 µM [activator, partial curve, poor fit]
18 | CC(=O)SC1CC2=CC(=O)CC[C@]2(C)C2CC[C@@]3(C)C(CC[C@@]34CCC(=O)O4)C12 (stereo partly drawn) | inactive
19 | NC[C@@H]1O[C@H](C23CC4CC(CC(C4)C2)C3)Cc2c1ccc(O)c2O | active: 19.3 µM
20 | CN(C)CCCN1c2ccccc2CCc2ccc(Cl)cc21 | inconclusive: 27.3 µM [activator, single point]
21 | CCCC(=O)NCCc1c2n(c3ccc(OC)cc13)CCCc1ccccc1-2 | inactive
22 | N=S(=O)(O)Cc1noc2ccccc12 | inactive
23 | O=Nc1c(-c2c(O)[nH]c3cc(Br)ccc23)[nH]c2ccccc12 | inactive
24 | O=C(Nc1ccc([N+](=O)[O-])cc1Cl)c1cc(Cl)ccc1O | inconclusive: 7.69 µM [activator, full curve]
25 | C=C1C(=O)O[C@@H]2[C@H]3O[C@]3(C)CCC=C(C)CC[C@@H]12 | inconclusive: 19.3 µM [activator, partial curve, poor fit]
26 | Cn1c(=O)c(-c2c(Cl)cccc2Cl)cc2cnc(Nc3ccc(N4CCOCC4)cc3)nc21 | inconclusive: 1.72 µM [activator, full curve]
27 | Cn1cc(C2=C(c3ccc(Cl)cc3Cl)C(=O)NC2=O)c2ccccc21 | active: 0.968 µM
28 | O=C1NC(=O)c2c1c(-c1ccccc1)cc1[nH]c3ccc(O)cc3c21 | inactive

An excerpt of these results, with each value named.
NC[C@@H]1O[C@H](C23CC4CC(CC(C4)C2)C3)Cc2c1ccc(O)c2O
  Potency: active: 19.3 µM
O=C1NC(=O)c2c1c(-c1ccccc1)cc1[nH]c3ccc(O)cc3c21
  Potency: inactive
